Laboratory results reported in PubChem BioAssay AID2551 (National Center for Advancing Translational Sciences (NCATS), 2010).
Hit rate of the full screen: of about 310,000 compounds, about 17,000 (5.5%) were called active. The shares of active, inactive and inconclusive entries below differ from those in the screen. Calls follow the shape of the dose curve; as a rule, active = well fitted inhibition curve with a large enough effect; inconclusive = small, poorly fitted or top-dose-only effect, or effect the other way; inactive = no such curve, though single readings can be large or run the other way. A potency beside an inconclusive call is a rough fit, not a confirmed value.

The chains behind the UniProt entries cited, without tags or fusion partners. Where a name states a change or a piece, a line headed by the entry shows the natural chain unless it says otherwise.
UniProt P51450: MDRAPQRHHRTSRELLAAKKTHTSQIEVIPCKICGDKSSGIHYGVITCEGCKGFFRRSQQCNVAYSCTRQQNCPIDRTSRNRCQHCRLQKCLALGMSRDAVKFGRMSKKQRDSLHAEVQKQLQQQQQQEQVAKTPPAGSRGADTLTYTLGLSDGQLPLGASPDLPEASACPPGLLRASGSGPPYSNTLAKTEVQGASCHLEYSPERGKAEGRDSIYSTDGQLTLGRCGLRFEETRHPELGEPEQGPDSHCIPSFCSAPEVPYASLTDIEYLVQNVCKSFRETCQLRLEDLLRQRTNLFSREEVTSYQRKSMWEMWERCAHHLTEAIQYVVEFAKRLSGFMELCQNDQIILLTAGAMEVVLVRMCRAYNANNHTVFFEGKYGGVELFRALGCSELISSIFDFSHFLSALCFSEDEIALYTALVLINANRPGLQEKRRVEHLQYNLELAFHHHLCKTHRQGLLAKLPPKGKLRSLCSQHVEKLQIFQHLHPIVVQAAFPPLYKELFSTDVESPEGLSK

Biological target: Nuclear receptor ROR-gamma (Mus musculus) (UniProt P51450)
Assay: qHTS for inhibitors of ROR gamma transcriptional activity; also: nearly all actives have a fitted effect of over 60% in size
Conditions: Drosophila S2 Gal4-RORgamma UAS-luciferase reporter, 20 h; activity change, negative = inhibition: at 53.6 µM (top of the series)
Outline: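 Luciferase reporter read in Schneider cells carrying Gal4-RORγ (mouse) and UAS-Photinus luciferase; cells given compound 1 h before 700 uM copper sulfate induction, then incubated 20 h at ambient temperature.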
% is scaled to controls: 0 for no effect and ±100 for the full control effect; potency is read from the fitted curve at half-maximal effect.

Potency, inconclusive:
Cc1cc(C(=O)N/N=C2\CCCC(=O)C2)c(C)n1-c1ccccc1 28.2 µM [inhibitor, single point]
Cc1cc(NC(=O)c2ccc(NC(=O)c3cccs3)cc2)no1 1.26 µM [activator, partial curve]
O/N=C\c1cnc(N2CCN(c3ccccc3)CC2)s1 20 µM [activator, single point]
O=C(Nc1ccccc1CC[N+](=O)[O-])N1CCN(c2ccccc2)CC1 5.62 µM [inhibitor, single point]
N/C(=N\OC(=O)COc1ccc(Cl)cc1Br)c1cccnc1 0.631 µM [activator, full curve]
COc1cc(C(=S)N2CCN(c3ccccc3Cl)CC2)cc(O)c1O 35.5 µM [inhibitor, single point]
COc1ccc(CCNC(=S)NCc2cccs2)cc1OC 20 µM [inhibitor, single point]
Cc1[nH]c2ccccc2c1/C=N/Nc1ccccn1 0.708 µM [inhibitor, full curve, poor fit]
CCn1ccnc1C(O)c1cccc2ccccc12 (configuration not stated) 12.6 µM [inhibitor, single point]
COc1ccc(/C=N/N=C2\SCC(=O)N2c2c(C)n(C)n(-c3ccccc3)c2=O)cc1OC 35.5 µM [activator, single point]
CC1CCN(c2ncnc3c2cnn3-c2ccccc2)CC1 0.398 µM [activator, full curve, poor fit]
CCn1nc(C)cc1C(=O)Sc1ccc(Cl)cc1Cl 35.5 µM [inhibitor, single point]

Fetched by structure from the entries so far (2):
Potency, inconclusive:
CC1CCN(c2ncnc3c2cnn3-c2ccccc2)CC1 0.398 µM [activator, full curve, poor fit]
COc1cc(C(=S)N2CCN(c3ccccc3Cl)CC2)cc(O)c1O 35.5 µM [inhibitor, single point]

Next part.

Potency, active:
CCn1c(-c2ccc(F)cc2)n[nH]c1=S 1.12 µM
COc1cccc(Cn2c(=O)c(-c3cc(F)cc(F)c3)nc3cnc(N4CCNCC4)nc32)c1 2.82 µM
Cc1cc(Nc2ncc(Cl)cc2Cl)n(-c2ccccc2C)n1 8.91 µM
C=CCNC(=S)N/N=C/c1ccc(C)cc1C 0.447 µM
O=C(N/N=C/C=C/c1ccc(Br)cc1)C(O)c1ccccc1 (configuration not stated) 11.2 µM

Activity change, negative = inhibition, inactive:
Cc1ccccc1-c1cncnc1N1CCNCC1 -0.231%
O=C(CSCc1cccc(F)c1)N1CCN(c2ccccc2)CC1 1.15%
Cc1cccc(N(Cc2ccccc2)C(=O)c2ccccc2F)c1 2.6%
O=C(CSc1ccc(-c2ccco2)nn1)c1cccc([N+](=O)[O-])c1 3.28%
CC(=O)c1c(C)[nH]c(C(=O)Nc2nc(-c3ccc(-c4ccccc4)cc3)cs2)c1C -4.65%
